Data on 23 targets can be found in the supplement of paper PMC10849652.

Chains of the proteins cited; added tags and fusions are not shown. Lines headed by an entry give the natural chain unless they say otherwise; changes in a name come on top.
UniProt P13995: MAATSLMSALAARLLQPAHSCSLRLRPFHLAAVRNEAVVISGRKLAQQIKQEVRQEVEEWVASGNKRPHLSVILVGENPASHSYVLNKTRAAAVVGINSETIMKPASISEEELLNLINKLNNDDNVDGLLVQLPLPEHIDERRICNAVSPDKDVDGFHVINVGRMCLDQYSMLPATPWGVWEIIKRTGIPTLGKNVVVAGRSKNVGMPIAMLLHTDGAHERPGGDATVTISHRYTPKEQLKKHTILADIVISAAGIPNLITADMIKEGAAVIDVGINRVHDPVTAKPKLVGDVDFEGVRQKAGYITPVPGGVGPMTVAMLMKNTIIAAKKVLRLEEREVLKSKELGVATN
UniProt P35749, whole entry, looked up: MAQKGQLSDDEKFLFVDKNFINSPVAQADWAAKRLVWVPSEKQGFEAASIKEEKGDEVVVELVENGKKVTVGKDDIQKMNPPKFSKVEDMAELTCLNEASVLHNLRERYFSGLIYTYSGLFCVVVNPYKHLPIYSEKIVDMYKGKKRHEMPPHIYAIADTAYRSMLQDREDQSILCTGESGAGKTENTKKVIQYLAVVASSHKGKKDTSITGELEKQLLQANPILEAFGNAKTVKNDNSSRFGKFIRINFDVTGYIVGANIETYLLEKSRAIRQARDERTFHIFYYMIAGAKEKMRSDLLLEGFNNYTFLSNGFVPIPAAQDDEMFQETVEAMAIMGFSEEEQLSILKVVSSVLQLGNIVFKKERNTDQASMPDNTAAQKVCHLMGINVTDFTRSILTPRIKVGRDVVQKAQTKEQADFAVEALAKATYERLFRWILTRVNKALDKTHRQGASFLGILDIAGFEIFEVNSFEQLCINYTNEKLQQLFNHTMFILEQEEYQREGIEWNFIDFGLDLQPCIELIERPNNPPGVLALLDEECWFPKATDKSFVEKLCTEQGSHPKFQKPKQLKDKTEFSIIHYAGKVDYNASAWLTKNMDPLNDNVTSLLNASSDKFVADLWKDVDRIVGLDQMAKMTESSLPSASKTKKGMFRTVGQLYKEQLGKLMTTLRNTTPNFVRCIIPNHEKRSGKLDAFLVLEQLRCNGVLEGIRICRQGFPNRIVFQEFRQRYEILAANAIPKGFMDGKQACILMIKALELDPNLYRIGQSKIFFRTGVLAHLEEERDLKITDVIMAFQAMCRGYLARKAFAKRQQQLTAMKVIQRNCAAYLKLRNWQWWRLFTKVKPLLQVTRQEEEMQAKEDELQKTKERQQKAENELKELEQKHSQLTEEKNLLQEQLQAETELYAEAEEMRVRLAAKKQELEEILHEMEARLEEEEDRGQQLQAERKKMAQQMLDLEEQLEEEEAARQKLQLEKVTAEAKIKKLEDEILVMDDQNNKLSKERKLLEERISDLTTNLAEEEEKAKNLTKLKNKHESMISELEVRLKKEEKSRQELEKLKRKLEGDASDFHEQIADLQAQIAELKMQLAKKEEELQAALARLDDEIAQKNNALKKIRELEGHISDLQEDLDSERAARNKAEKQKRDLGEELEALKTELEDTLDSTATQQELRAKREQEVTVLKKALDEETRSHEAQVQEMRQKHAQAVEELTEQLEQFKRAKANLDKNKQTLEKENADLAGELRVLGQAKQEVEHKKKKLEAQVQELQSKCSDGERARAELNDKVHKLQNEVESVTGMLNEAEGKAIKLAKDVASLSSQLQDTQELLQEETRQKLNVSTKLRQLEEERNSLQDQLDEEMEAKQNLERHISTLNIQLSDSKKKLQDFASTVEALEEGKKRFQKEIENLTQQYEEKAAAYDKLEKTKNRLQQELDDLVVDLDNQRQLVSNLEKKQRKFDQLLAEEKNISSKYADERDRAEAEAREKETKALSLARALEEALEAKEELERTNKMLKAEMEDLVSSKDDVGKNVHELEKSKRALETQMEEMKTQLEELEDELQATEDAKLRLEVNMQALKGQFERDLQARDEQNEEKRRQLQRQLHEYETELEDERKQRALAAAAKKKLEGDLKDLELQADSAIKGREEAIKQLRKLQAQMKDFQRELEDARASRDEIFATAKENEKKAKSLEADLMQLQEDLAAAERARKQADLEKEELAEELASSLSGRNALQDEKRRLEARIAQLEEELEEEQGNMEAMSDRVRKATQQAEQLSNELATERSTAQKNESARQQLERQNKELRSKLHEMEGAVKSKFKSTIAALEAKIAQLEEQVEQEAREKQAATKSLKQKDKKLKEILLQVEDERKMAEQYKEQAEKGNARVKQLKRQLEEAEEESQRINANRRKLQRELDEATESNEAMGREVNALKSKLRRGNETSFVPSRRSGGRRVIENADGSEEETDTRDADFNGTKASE
UniProt P00846: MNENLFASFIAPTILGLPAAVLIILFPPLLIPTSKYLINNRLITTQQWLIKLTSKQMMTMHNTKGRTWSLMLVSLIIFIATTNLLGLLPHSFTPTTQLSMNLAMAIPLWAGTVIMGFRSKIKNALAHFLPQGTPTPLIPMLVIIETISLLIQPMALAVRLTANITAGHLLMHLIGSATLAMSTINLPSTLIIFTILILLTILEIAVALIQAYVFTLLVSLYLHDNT
UniProt O94832: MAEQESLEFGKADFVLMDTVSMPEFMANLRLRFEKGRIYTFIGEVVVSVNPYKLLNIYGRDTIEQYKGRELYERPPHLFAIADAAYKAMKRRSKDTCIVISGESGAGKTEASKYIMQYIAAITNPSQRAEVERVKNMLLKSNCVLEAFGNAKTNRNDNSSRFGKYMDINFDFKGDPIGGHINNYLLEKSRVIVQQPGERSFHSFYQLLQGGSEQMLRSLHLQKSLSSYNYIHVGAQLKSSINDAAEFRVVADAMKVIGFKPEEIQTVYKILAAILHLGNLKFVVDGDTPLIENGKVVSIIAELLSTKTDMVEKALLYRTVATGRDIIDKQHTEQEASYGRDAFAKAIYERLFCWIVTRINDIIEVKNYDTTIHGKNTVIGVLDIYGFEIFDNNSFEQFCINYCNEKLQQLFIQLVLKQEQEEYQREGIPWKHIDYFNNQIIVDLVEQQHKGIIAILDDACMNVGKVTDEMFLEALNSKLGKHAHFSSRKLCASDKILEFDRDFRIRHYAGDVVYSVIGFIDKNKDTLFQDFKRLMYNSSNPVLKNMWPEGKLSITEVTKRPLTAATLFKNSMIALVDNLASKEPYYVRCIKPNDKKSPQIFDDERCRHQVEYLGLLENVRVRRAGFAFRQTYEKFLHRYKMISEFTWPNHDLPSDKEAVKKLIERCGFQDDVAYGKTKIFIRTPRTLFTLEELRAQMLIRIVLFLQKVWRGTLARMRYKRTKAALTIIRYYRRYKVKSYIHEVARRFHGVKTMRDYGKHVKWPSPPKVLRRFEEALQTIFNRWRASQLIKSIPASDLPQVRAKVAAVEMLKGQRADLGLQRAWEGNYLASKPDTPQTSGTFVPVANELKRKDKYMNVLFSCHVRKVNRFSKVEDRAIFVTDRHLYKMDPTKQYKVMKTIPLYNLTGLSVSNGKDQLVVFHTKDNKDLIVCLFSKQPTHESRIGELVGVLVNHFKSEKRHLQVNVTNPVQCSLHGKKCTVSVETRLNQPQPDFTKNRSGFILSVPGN
UniProt Q96E11: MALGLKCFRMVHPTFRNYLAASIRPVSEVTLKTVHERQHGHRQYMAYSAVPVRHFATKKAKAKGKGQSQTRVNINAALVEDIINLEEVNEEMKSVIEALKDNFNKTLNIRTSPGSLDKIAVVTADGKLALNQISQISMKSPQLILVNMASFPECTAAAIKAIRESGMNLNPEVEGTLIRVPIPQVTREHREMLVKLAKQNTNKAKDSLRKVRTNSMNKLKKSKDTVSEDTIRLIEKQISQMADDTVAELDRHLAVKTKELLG
UniProt P26038, whole entry, looked up: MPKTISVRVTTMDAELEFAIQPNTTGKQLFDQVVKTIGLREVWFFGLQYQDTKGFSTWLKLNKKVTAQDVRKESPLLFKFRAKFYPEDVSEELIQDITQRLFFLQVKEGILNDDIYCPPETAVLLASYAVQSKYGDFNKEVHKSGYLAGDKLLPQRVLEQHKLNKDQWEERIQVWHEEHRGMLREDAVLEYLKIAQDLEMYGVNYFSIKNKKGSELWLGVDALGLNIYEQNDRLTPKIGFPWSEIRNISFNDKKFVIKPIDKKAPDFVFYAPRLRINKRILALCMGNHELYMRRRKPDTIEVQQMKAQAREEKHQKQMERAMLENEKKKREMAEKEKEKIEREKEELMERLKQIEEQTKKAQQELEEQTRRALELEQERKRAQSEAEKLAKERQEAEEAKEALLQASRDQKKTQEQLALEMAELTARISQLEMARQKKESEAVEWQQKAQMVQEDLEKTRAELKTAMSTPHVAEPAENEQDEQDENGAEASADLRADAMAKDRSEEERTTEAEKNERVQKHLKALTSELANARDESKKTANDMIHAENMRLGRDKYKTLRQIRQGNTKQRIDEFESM
UniProt Q15800: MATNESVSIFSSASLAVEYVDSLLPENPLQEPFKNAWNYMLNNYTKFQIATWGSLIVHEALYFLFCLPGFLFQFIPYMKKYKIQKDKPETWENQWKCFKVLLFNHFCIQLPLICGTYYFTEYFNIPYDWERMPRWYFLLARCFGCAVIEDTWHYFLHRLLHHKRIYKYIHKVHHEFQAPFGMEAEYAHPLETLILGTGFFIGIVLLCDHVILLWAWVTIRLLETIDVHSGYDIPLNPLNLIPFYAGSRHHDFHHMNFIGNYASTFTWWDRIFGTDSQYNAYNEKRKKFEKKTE
UniProt Q9Y217: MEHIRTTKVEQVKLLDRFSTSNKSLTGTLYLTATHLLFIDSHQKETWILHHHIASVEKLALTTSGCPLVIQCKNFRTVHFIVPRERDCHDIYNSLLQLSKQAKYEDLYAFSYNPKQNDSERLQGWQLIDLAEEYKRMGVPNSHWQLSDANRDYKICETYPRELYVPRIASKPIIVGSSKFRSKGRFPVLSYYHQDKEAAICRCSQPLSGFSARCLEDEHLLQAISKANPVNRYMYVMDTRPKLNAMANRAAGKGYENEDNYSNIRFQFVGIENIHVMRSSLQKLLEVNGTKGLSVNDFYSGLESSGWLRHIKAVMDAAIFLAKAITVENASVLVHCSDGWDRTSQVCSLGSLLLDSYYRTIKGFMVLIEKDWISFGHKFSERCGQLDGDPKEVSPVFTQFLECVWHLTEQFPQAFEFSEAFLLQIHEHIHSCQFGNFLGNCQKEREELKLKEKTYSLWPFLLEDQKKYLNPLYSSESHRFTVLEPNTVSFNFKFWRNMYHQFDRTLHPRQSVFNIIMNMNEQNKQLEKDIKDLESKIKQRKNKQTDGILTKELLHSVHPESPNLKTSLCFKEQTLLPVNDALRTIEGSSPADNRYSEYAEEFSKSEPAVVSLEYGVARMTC
UniProt Q99417: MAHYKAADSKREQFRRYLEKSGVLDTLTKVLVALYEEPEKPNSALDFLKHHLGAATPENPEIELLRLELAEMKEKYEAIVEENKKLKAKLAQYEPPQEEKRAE
UniProt Q969V6: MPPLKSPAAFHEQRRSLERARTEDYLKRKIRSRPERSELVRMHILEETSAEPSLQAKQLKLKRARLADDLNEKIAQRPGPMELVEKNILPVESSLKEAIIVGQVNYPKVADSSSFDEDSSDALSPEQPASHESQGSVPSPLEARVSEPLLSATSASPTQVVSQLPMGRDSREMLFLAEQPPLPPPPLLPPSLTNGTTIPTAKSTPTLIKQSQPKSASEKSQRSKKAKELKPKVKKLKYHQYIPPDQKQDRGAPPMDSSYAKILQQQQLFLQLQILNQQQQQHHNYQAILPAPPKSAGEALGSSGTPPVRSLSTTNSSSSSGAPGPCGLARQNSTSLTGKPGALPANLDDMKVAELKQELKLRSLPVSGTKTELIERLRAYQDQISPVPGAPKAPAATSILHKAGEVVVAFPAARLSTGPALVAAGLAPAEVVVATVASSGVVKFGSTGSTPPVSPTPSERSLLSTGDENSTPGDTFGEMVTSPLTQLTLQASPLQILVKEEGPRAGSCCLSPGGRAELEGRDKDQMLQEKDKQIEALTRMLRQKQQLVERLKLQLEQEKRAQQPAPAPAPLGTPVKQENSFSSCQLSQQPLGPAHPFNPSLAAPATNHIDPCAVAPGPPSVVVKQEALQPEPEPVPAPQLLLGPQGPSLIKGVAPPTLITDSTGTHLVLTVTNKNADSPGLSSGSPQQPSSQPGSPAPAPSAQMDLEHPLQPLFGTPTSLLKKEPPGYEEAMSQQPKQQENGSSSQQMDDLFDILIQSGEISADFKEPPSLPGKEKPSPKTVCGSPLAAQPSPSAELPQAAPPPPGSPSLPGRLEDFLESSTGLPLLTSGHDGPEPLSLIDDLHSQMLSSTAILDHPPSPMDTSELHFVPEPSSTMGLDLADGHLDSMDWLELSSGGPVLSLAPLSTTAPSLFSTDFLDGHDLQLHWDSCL
UniProt P14649: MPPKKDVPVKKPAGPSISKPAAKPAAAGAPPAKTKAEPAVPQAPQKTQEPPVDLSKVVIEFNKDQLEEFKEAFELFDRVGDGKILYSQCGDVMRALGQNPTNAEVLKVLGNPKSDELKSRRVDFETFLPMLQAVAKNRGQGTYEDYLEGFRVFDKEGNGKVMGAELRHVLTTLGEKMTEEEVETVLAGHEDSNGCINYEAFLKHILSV

This is one part of the list.

Compound in this test: Cn1cncc1[C@@](N)(c1ccc(Cl)cc1)c1ccc2c(c1)c(-c1cccc(Cl)c1)cc(=O)n2C [tipifarnib]
The test is described as follows: log2 fold change, soluble protein after heating vs DMSO (PISA); higher = thermal stabilisation; K562 cells, 10 uM, 30 min; active = over 0.2 and 3.5 SD of the protein, either way, in both replicates (recomputed). In outline: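 Thermal stability values are relative to control samples and come from duplicates. They are expressed as log2 fold changes. For measurement, K562 cells (2×10^6 cells/mL) received 10 μM compound for 30 min, and aliquots were heated for 3 min over 48°C-58°C, pooled, and extracted at 4°C in PBS with 0.5% NP-40. Soluble protein, the supernatant after 21,000xg for 90 min, was quantified by TMTpro 16plex LC-MS/MS with equalised channel sums.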
In the case of MTCH1 (UniProt Q9NZJ7), the log2 fold change was inactive: 0.051.

Take MTHFD2 (UniProt P13995): the log2 fold change was inactive: -0.037.

On to MT-CYB (UniProt P00156), for which the log2 fold change was inactive: 0.159.

MYH11 isoform 2 (UniProt P35749): the log2 fold change was inactive: 0.005.

Take MT-ATP6 (UniProt P00846): the log2 fold change was inactive: 0.231.

In the case of MYO1D (UniProt O94832), the log2 fold change was inactive: 0.146.

On to MTHFD1, A0A384N5Y3, for which the log2 fold change is inactive: -0.146.

Regarding MRRF (UniProt Q96E11), the log2 fold change was inactive: -0.015.

Turning to MTMR12 (UniProt Q9C0I1), the log2 fold change was inactive: 0.029.

Consider MSN (UniProt P26038), for which the log2 fold change is inactive: -0.067.

Turning to MSMO1 (UniProt Q15800), the log2 fold change is inactive: 0.117.

MRPS10 (UniProt P82664): the log2 fold change was inactive: -0.104.

In the case of MTMR6 (UniProt Q9Y217), the log2 fold change was inactive: 0.035.

Consider MUCL1 (UniProt Q96DR8), for which the log2 fold change is inactive: -0.186.

On to MRPS2 (UniProt Q9Y399), for which the log2 fold change was inactive: -0.074.

For the target MRPS15 (UniProt P82914), the log2 fold change was inactive: -0.105.

MRPS27 isoform 2 (UniProt Q92552): the log2 fold change is inactive: -0.112.

Regarding MSRB2 (UniProt Q9Y3D2), the log2 fold change was inactive: 0.041.

In the case of MYCBP (UniProt Q99417), the log2 fold change is inactive: 0.061.

Regarding MRPS11 (UniProt P82912), the log2 fold change was inactive: -0.015.

With MRPS33 (UniProt Q9Y291), the log2 fold change was inactive: -0.003.

For the target MRTFA (UniProt Q969V6), the log2 fold change was inactive: -0.116.

For MYL6B (UniProt P14649), the log2 fold change was inactive: 0.011.
